PubChem BioAssay AID1224828 – NIAID – 2016
Shown is a random part of about 17,000 deposited reagents. 762 of them (4.5%) were called active. 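Active calls include both raised and lowered p65 entry, mostly lowered; wells with fewer than 50 cells lack a z-score.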 Raw values vary from plate to plate and are shown uncorrected.

- Screen: 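Find genes required for NF-kappaB p65 moving into the nucleus after LPS in mouse macrophages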 (primary screen)
- Cells: mouse RAW264.7 G9 macrophage reporter cells (GFP-p65, Tnf promoter-mCherry)
- Reagents: siRNA pool against mouse genes, 100 nM
- Time to read-out: 2 days siRNA transfection, then 40 min LPS before fixation
- Treatment: LPS (Salmonella minnesota R595) at 10 ng/ml
- Read-out: 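Microscopy ratio of nuclear to perinuclear-ring GFP-p65 signal, scaled to the plate median; gene score is the average of two replicate robust z-scores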
- Direction: p65 translocation robust z-score: higher = more nuclear NF-kappaB p65 after LPS than the plate median; nuclear/cytoplasmic p65 ratio: higher = more nuclear NF-kappaB p65
- Call rule: 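Called active when z exceeds 3.3 or falls under -1.56 (median of Tlr4 controls), giving activity score of at least 50; no calls for control wells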
- Meaning of the calls: active = hit (p65 shift raised or lowered); inactive = no clear change

no.	gene	p65 translocation robust z-score	nuclear/cytoplasmic p65 ratio, rep 1	nuclear/cytoplasmic p65 ratio, rep 2	low cell count flag	call
1	Chrna6	0.01	1.48	1.37	enough cells to score	inactive
2	Zfp738		1.23	2.09	fewer than 50 cells per well; well left out of scoring	inactive
3	Klk10	1.27	1.52	1.46	enough cells to score	inactive
4	Sardh	-0.54	1.46	1.42	enough cells to score	inactive
5	Cdca8		1.35	1.5	fewer than 50 cells per well; well left out of scoring	inactive
6	Eeig1		1.39	1.55	fewer than 50 cells per well; well left out of scoring	inactive
7	Kansl1l	-0.24	1.34	1.55	enough cells to score	inactive
8	Or4c31	-1.28	1.46	1.39	enough cells to score	inactive
9	Robo1	0.42	1.53	1.62	enough cells to score	inactive
10	Rab17	2	1.69	1.9	enough cells to score	inactive
11	Egr2	-0.41	1.45	1.28	enough cells to score	inactive
12	Pbx4		1.4	1.19	fewer than 50 cells per well; well left out of scoring	inactive
13	Alg3	0.83	1.67	1.81	enough cells to score	inactive
14	Mkrn3	-1.66	1.47	1.38	enough cells to score	active
15	9430015G10Rik		1.36	1.41	fewer than 50 cells per well; well left out of scoring	inactive
16	Tjap1	0.91	1.53	1.71	enough cells to score	inactive
17	Tmem107	-1.49	1.28	1.29	enough cells to score	inactive
18	Pla2g12b	2.06	1.52	1.45	enough cells to score	inactive
19	Dnajc3	-0.13	1.61	1.42	enough cells to score	inactive
20	Plcxd1		1.73	1.81	fewer than 50 cells per well; well left out of scoring	inactive
21	Cadps2	-0.76	1.59	1.54	enough cells to score	inactive
22	Atp5me	-0.92	1.53	1.32	enough cells to score	inactive
23	Plxna4os2		1.29	1.67	fewer than 50 cells per well; well left out of scoring	inactive
24	Nsmce3	0.17	1.83	1.6	enough cells to score	inactive
25	Or51f23		1.36	1.47	fewer than 50 cells per well; well left out of scoring	inactive
26	1700123K08Rik		1.44	1.79	fewer than 50 cells per well; well left out of scoring	inactive
27	Prdm13	2.61	1.72	1.88	enough cells to score	inactive
28	Kpna1	-1.39	1.31	1.18	enough cells to score	inactive
29	Timm50	1.05	1.8	1.74	enough cells to score	inactive
30	Cd19	-0.29	1.4	1.34	enough cells to score	inactive
31	Mapkapk5		1.44	1.45	fewer than 50 cells per well; well left out of scoring	inactive
32	Ddb2	1.86	1.74	1.61	enough cells to score	inactive
33	Sec61g	-0.47	1.5	1.2	enough cells to score	inactive
34	4931414P19Rik		1.17	1.35	fewer than 50 cells per well; well left out of scoring	inactive
35	B3gnt4	1.83	1.8	1.84	enough cells to score	inactive
36	Csnk2a1	0.57	1.74	1.49	enough cells to score	inactive
37	Card14	-0.9	1.33	1.27	enough cells to score	inactive
38	Orm1	-0.06	1.44	1.23	enough cells to score	inactive
39	Mcm9		1.21	1.26	fewer than 50 cells per well; well left out of scoring	inactive
40	Tcstv2a	1.01	1.79	1.8	enough cells to score	inactive
41	Adgrg1	-2.69	1.27	1.2	enough cells to score	active
42	Trhr	-2.14	1.22	1.27	enough cells to score	active
43	Mesp2	-2.03	1.39	1.26	enough cells to score	active
44	Ykt6		1.28	1.35	fewer than 50 cells per well; well left out of scoring	inactive
45	Snrnp40	2.59	2	2	enough cells to score	inactive
46	Ggcx	0.17	1.48	1.37	enough cells to score	inactive
47	Clcn3	0.22	1.67	1.77	enough cells to score	inactive
48	Or5aq1b	-0.61	1.7	1.44	enough cells to score	inactive
49	Lrp4	-0.73	1.65	1.4	enough cells to score	inactive
50	Tmprss5		1.41	1.51	fewer than 50 cells per well; well left out of scoring	inactive
51	Map2k1	2.72	1.66	1.72	enough cells to score	inactive
52	Slc7a8	0.3	1.44	1.28	enough cells to score	inactive
53	Hoxa3	-0.79	1.58	1.38	enough cells to score	inactive
54	Timm17a	0.29	1.35	1.27	enough cells to score	inactive
55	Tnip1	-1.46	1.37	1.26	enough cells to score	inactive
56	Ddx55	0.67	1.44	1.87	enough cells to score	inactive
57	Hectd3	0.44	1.27	1.66	enough cells to score	inactive
58	Ccdc169	1.77	1.74	1.63	enough cells to score	inactive
59	Zbtb10	1.35	1.62	1.88	enough cells to score	inactive

Entries listed so far marked active, once more:
gene	p65 translocation robust z-score	nuclear/cytoplasmic p65 ratio, rep 1	nuclear/cytoplasmic p65 ratio, rep 2	low cell count flag	call
Mkrn3	-1.66	1.47	1.38	enough cells to score	active
Adgrg1	-2.69	1.27	1.2	enough cells to score	active
Trhr	-2.14	1.22	1.27	enough cells to score	active
Mesp2	-2.03	1.39	1.26	enough cells to score	active
